From patent US9963486B2, “Peptidomimetics for treating HER2-overexpressed cancer” (Board of Supervisors for the University of Louisiana System, priority 2014, dated 2018)
Entries after “also recorded” stand apart in the source; their conditions may differ. At least one peptide structure holds a part that was inferred or is arguable (an end, a ring closure or a residue). Numbered stars: 1 amine (or outer) side, 2 acyl side, 3 side chain; on linkers, the order of the positions; unused ones are H or OH. Square brackets hold non-standard residues; d marks the D form. Peptide text beside a SMILES is read from it. X1 = O=C(CC(N[*:1])c1cccc2ccccc12)[*:2]

Experiments:
[1] = system: HER2 phosphorylation; test: Western blot of HER2 phosphorylation in mouse xenograft breast tumor model; type: in vivo; conditions: compared to untreated control group
[2] = system: HER2 protein phosphorylation; test: Western blot of phosphorylated HER2 in Calu-3 cells; type: cell-based; conditions: Calu-3 lung cancer cells, FIG. 5
[3] = system: HER2 kinase domain phosphorylation; test: Western blot of HER2 phosphorylation in BT-474 cells; type: cell-based
[4] = target: T1, HER2 domain IV (Homo sapiens, UniProt P04626); test: Competitive binding assay with FITC-labeled Compound 5 on BT-474 cells; conditions: various concentrations, FIG. 3
T1 construct: endogenous in cells

[5] = system: HER2-expressing breast tumors (BT-474 cells); test: BT-474 xenograft model of breast cancer, tumor volume; type: in vivo, nude mice; conditions: 4 mg/kg injected just below the tumor, twice a week for 19 days; Days 9-19
Experimental: We evaluated the ability of Compound 18 to suppress HER2-expressing breast tumors in a xenograft model of breast cancer. Breast cancer tumors were induced in nude mice by injecting 2 million BT-474 cells; these estrogen-dependent cancer cells were stimulated by an implanted estrogen pellet. Compound 9, Compound 18, vehicle, or lapatinib (positive control) were injected just below the tumor at a dose of 4 mg/kg, twice a week for 19 days, for a total of 6 injections. Mice weight and health were monitored daily. Tumor size was measured with Vernier calipers. Tumor volume was estimated using the formula Volume=length×0.5 (width)^2. At the end of the experimental period, mice were euthanized and tumor sections were removed and frozen for further analysis. FIG. 9 depicts tumor volume as a function of time for the various treatments.

[6] = target: T2, HER2-HER3 heterodimer (Homo sapiens, UniProt P04626); test: PathHunter HER2:HER3 heterodimerization assay in transfected U2OS cells; type: cell-based; conditions: 0.3 μM NRG1, FIG. 4A
T2 construct: beta-galactosidase enzyme fragment (PathHunter complementation); host or cells: U2OS

[7] = system: MCF-10A normal breast epithelial cell line
[8] = target: T3, HER2-HER3 heterodimers (Homo sapiens, UniProt P04626); test: Proximity ligation assay, HER2-HER3 in SKBR-3 cells; type: cell-based; conditions: PLA, 0.5 and 1 μM
T3 construct: HER2-overexpressing cancer cell line SKBR-3 with a proximity ligation assay (PLA); endogenous in cells; host or cells: SKBR-3

[9] = system: HER2 protein extracellular domain IV; test: Surface plasmon resonance binding; conditions: immobilized HER2 extracellular domain, FIGS. 6-7
[10] = target: T4, EGFR-HER2 heterodimers (Homo sapiens, UniProt P04626); test: Proximity ligation assay, EGFR-HER2 in SKBR-3 cells; type: cell-based; conditions: PLA, 0.5 and 1 μM
T4 construct: endogenous in cells; host or cells: SKBR-3

[11] = target: T5, HER2:HER3 interaction (Homo sapiens, UniProt P04626); test: Proximity ligation assay on xenograft tumor sections; type: in vivo, mouse; conditions: PLA on paraffin-embedded xenograft tumor sections
T5 construct: from tissue

## N=C(N)NCCC[C@@H]1NC(=O)[C@H]2CCCN2C(=O)[C@@H]2CCCN2C(=O)[C@H](CCCNC(=N)N)NC(=O)CC(c2cccc3ccccc23)NC(=O)[C@H](Cc2ccccc2)NC(=O)[C@H](CC(=O)O)NC(=O)[C@H](CC(=O)O)NC(=O)[C@H](Cc2ccccc2)NC(=O)CC(c2cccc3ccccc23)NC1=O (stereo partly drawn) [Compound 18, Cyclo(1,10)PpR(Anapa)FDDF(Anapa)R] (cyclo(P[dP]R[X1]FDDF[X1]R))
[1]
  HER2 phosphorylation in xenograft tumor: inhibited HER2 phosphorylation
[2]
  inhibition of phosphorylation of HER2 protein: inhibition of phosphorylation of HER2 protein
[3]
  inhibition of phosphorylation of the HER2 kinase domain: inhibited phosphorylation of the HER2 kinase domain
[4]
  competitive inhibition of fluorescently-labeled Compound 5 binding: competitively inhibited fluorescently-labeled Compound 5
[5]
  tumor volume compared to control: significantly decreased tumor volume
[6]
  inhibition of HER2-HER3 heterodimerization: inhibited the heterodimerization of HER2-HER3 in a concentration-dependent manner
[7]; normal MCF-10A versus SKBR-3 cancer cell line
  antiproliferative activity against MCF-10A less than against SKBR-3: ~200 times
[7]; normal MCF-10A versus lung cancer cell line Calu-3
  activity against MCF-10A less than against Calu-3: ~2000 times
[8]
  inhibition of HER2-HER3 dimerization (red fluorescent dots): substantial decrease in red fluorescence dots; also recorded: decrease in the number of fluorescent red dots
[9]
  binding to HER2 protein extracellular domain IV: binds specifically
[10]
  inhibition of EGFR-HER2 dimerization (red fluorescent dots): decrease in the number of fluorescent red dots
[11]
  inhibition of HER2:HER3 interaction in tumor sections: showed inhibition of HER2:HER3 interaction
